Values of other authors in US20230277494A1, “TRANS-CROCETIN COMPOSITIONS AND TREATMENT REGIMENS” (priority 2020, published 2023).
At least one compound was matched to its structure with a doubt left.

Conditions: standard care with dexamethasone; similar patient population; cited from earlier work

C[C@@H]1C[C@H]2[C@@H]3CCC4=CC(=O)C=C[C@]4(C)[C@@]3(F)[C@@H](O)C[C@]2(C)[C@@]1(O)C(=O)CO [dexamethasone]
survival rate: 69%
